The values below come from publication PMC5932465.

The chains behind the UniProt entries cited, without tags or fusion partners.
UniProt Q9UM54: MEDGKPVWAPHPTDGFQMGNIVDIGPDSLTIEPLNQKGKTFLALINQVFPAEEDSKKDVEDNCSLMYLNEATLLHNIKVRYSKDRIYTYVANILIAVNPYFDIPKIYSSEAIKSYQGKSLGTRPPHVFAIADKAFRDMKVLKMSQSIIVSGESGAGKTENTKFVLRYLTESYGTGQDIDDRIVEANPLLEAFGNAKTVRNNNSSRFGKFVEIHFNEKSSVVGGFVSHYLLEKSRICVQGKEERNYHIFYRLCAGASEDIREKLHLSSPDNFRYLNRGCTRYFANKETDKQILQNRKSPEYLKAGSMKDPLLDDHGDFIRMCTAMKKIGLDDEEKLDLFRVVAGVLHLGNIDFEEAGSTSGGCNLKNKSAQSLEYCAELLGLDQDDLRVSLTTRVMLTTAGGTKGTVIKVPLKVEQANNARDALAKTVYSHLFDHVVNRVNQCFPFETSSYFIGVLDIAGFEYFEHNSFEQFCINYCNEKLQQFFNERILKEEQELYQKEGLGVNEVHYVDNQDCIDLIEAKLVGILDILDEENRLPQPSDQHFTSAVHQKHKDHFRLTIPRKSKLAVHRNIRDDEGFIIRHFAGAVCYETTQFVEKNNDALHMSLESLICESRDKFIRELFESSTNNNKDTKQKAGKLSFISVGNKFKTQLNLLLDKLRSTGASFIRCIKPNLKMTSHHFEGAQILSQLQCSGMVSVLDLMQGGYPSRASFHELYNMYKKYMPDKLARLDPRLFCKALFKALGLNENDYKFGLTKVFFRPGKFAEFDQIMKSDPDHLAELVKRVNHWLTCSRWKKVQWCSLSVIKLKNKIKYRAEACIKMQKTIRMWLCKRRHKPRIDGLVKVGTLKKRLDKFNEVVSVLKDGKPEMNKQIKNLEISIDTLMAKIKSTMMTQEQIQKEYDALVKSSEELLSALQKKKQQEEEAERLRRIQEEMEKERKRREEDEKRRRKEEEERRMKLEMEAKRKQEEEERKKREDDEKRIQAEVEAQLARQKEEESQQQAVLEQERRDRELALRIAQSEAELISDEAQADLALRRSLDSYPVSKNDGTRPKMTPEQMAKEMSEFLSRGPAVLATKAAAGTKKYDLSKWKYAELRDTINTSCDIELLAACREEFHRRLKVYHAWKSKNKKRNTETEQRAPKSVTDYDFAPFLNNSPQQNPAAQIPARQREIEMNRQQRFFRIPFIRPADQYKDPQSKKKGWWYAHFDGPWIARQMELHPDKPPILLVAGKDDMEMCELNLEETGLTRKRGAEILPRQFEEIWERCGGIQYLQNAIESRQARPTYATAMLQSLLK
UniProt O60260: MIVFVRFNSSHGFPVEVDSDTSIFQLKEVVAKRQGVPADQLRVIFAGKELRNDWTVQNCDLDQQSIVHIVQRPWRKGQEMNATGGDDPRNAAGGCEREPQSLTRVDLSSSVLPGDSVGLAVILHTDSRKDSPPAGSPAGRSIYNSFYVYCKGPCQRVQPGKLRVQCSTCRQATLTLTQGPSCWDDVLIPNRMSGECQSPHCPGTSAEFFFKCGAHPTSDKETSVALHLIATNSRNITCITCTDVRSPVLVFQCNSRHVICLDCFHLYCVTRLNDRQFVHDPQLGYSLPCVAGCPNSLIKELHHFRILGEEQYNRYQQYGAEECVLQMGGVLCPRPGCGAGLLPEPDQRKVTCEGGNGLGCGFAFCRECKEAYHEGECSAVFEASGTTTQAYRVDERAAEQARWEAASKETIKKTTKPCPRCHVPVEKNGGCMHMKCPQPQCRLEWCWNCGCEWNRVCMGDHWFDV

In experiment [1] the target is endogenous MYO6 (myosin VI) (human (endogenous in HEK293)) (UniProt Q9UM54). Put plainly: co-IP; HA-Parkin-expressing HEK293 cells, 1 h 10 μM CCCP or untreated; native lysis buffer (50 mM Tris pH 7.4, 100 mM NaCl, 1% NP-40, 5 mM MgCl2, 5 mM ATP); IP with antibodies to HA or Parkin and blot for endogenous MYO6, or IP of endogenous MYO6 and blot for Parkin; IgG control IP.

In experiment [2] the target is HA-Parkin (UniProt O60260). Described as above.

Results are given in words; binding and its absence hold for the method and conditions named. In cells and extracts the contact can be indirect. Some binding calls cover weakened binding; strength is not graded here.

In the case of “HA-Parkin (from UniProt O60260 1-465) (enzyme)”, the binding entry in experiment [1] is “binds”.

As to “endogenous MYO6 (myosin VI) (from UniProt Q9UM54 1-1294)”, the binding entry in experiment [2] was “binds”.
